Results from PubChem BioAssay AID2685 (National Center for Advancing Translational Sciences (NCATS), 2010).
Screen size: about 320,000 compounds; about 2,100 (0.66%) were called active. The shares of active, inactive and inconclusive entries below differ from those in the screen. Calls follow the shape of the dose curve; as a rule, active = well fitted inhibition curve with a large enough effect in the signal ratio, with a control signal flat (not every such curve was filed as active); inconclusive = small, poorly fitted or top-dose-only effect, or effect the other way, or a change in a side signal; inactive = flat fitted curve, though single readings scatter; the % refers to the signal ratio. Where the call is inconclusive, the potency comes from a doubtful curve fit.

assay: qHTS Assay for Lipid Storage Modulators in Drosophila S3 Cells; conditions: BODIPY lipid droplet fluorescence, 18-24 h, cells fed with added oleic acid; lipid storage change, negative = inhibition: at 46.1 µM (top of the series) unless noted
In short: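 Laser-scanning cytometry quantifies lipid droplet accumulation (500–530 nm total intensity; droplet/cell object ratio) in oleic acid-fed (400 uM added) Drosophila S3 cells treated with a concentration series. 20 uM Triacsin C defined 100% inhibition.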
% is scaled to controls: 0 for no effect and ±100 for the full control effect; potency is read from the fitted curve at half-maximal effect.

Row | Structure (SMILES) | Potency | lipid storage change, negative = inhibition
1 | COc1ccccc1NC(=O)Cn1c2ccc(F)cc2c2nc3n(c(=O)c21)CCS3 | inconclusive: 3.26 µM [falling, full curve] | 
2 | COc1cc(CN2CCN(C(c3ccccc3)c3ccccc3)CC2)cc(OC)c1OC |  | inactive
3 | COC(=O)c1sccc1S(=O)(=O)Nc1ccc(S(N)(=O)=O)cc1 |  | inconclusive: -15.9%
4 | COc1ccccc1CCNC(=O)CSc1nc(-c2ccco2)cc(C(F)(F)F)n1 | inconclusive: 2.59 µM [falling, partial curve, poor fit] | 
5 | O=C(Cc1ncc(C(F)(F)F)cc1Cl)NC1CC1 |  | inconclusive: -3.26%
6 | O=C1C=C(c2ccc(Br)c3ccccc23)C[C@@H](c2ccc3c(c2)OCO3)C1 |  | inconclusive: -10.8%
7 | O=C(NCc1ccc2c(c1)OCO2)c1cc(F)c(F)cc1Cl |  | inconclusive: -1.74%
8 | COc1ccc(NC(=O)C(c2cc3c(cc2[N+](=O)[O-])OCO3)N(C)Cc2ccccc2)cc1 (configuration not stated) |  | inconclusive: 29.3%
9 | Cc1ccc2sc(N(CCN(C)C)C(=O)/C=C/c3cccs3)nc2c1C | inconclusive: 29.1 µM [falling, single point] | 
10 | COCC(C)n1c(C)cc(C(=O)CSc2nnc(N)s2)c1C (configuration not stated) |  | inconclusive: 1.08%
11 | O=C(CCC(=O)N(CC(=O)NC1CCCCC1)CC1CCCO1)Nc1nccs1 (configuration not stated) | inconclusive: 0.082 µM [falling, full curve, poor fit] | 
12 | Nc1nc(Nc2cccc(F)c2)nc2ccccc12 | inconclusive: 3.26 µM [activator, partial curve] | 
13 | O=C(Nc1cc(S(=O)(=O)N2CCOCC2)ccc1N1CCOCC1)c1ccc(S(=O)(=O)N2CCCCC2)cc1 |  | inconclusive: -4.34%
14 | Cc1cc(S(=O)(=O)NC2CCN(Cc3ccccc3)CC2)c(C)cc1Cl |  | inconclusive: -16.8%
15 | Cc1nc(Nc2ccccc2)sc1C | inconclusive: 0.651 µM [cytotoxic, single point] | 
16 | Cc1ccc(-c2cc(C(=O)NCc3ccc4c(c3)OCO4)[nH]n2)c(O)c1C |  | inconclusive: 24.4%
17 | CC(C)(C)NC(=O)C(c1ccc(F)cc1)N(CC1CCCO1)C(=O)CCC(=O)Nc1ccccn1 (configuration not stated) |  | inconclusive: 6.11%
18 | CN(C(=O)COC(=O)c1ccc(=O)n(Cc2ccccc2)n1)c1ccccc1 |  | inconclusive: -0.829%
19 | O=C(c1ccc([N+](=O)[O-])cc1)N1CCN(C(=O)c2ccco2)CC1 | inconclusive: 0.058 µM [falling, full curve, poor fit] | 
20 | CCC(=O)Nc1ccc(-c2nnc(-c3ccccc3)o2)cc1 |  | inconclusive: -9.49%
21 | COc1cccc(C(=O)OC(C)CN2CCCC2)c1 (configuration not stated) | inconclusive: 18.4 µM [activator, single point] | 
22 | O=C(COc1cc(F)ccc1[N+](=O)[O-])Nc1ccc2c(c1)OCO2 | inconclusive: 3.66 µM [activator, full curve, poor fit] | 
23 | Oc1c(C(c2ccco2)N2CCC3(CC2)OCCO3)sc2ncnn12 (configuration not stated) | inconclusive: 0.0164 µM [falling, full curve, poor fit] | 
24 | CC(=O)NCCOc1ccc(C(=O)O)cc1 |  | inconclusive: 0.0757%

Row | Structure (SMILES) | Potency | lipid storage change, negative = inhibition
25 | Cc1sc2nc(CSCC(=O)NC(C)(C)C)[nH]c(=O)c2c1C |  | inconclusive: -23.8%
26 | CC(C)(C)C(=O)Nc1sc2c(c1-c1nc3ccccc3[nH]1)CCCC2 |  | inconclusive: 70.4%
27 | S=C(c1cn(CCOc2cccc3ccccc23)c2ccccc12)N1CCCC1 | inconclusive: 3.26 µM [activator, partial curve] | 
28 | CN(C)Cc1nc2ccccc2c(=O)n1Cc1nc(C(C)(C)C)cs1 | inconclusive: 0.0731 µM [activator, full curve, poor fit] | 
29 | COc1cc2ccccc2cc1C(=O)Nc1nc(C)c(C(C)=O)s1 | inconclusive: 14.6 µM [activator, partial curve, poor fit] | 
30 | CC(C)C(=O)Nc1cccc2nsnc12 | inconclusive: 0.13 µM [falling, full curve, poor fit] | 
31 | Cc1ccc(S(=O)(=O)N2CC=C(C(=O)NC3CCCC3)CC2)cc1 | inconclusive: 7.31 µM [falling, single point] | 
32 | COc1ccccc1CNC(=O)COC(=O)c1ccc(NC(N)=O)cc1 |  | inconclusive: 2.66%
33 | Cc1ccc(CSc2nnc(SCC(=O)N/N=C/C=C/c3ccccc3[N+](=O)[O-])s2)cc1 |  | inconclusive: -17.7%
34 | Cc1ccccc1OCCCC(=O)Nc1ccc(Br)cc1 |  | inconclusive: 34.6%
35 | Cc1ccc2cc(CN(Cc3ccco3)C(=S)NCC3CCCO3)c(=O)[nH]c2c1C (configuration not stated) | inconclusive: 3.26 µM [activator, single point] | 
36 | COc1ccc(/C=N/NC(=O)c2ccc(CN3c4cccc5cccc(c45)S3(=O)=O)cc2)cc1 | inconclusive: 18.4 µM [activator, single point] | 
37 | Clc1ccc2nc(-c3ccccc3)cn2c1 |  | inconclusive: 17.4%
38 | Cc1ccc(NS(=O)(=O)c2ccc3c(c2)n(C)c(=O)n3C)c(C)c1 |  | inconclusive: 8.25%
39 | O=C(NC1CCCC1)C1c2ccccc2C(=O)N1CCCN1CCOCC1 (configuration not stated) |  | inconclusive: -7.61%
40 | CCOC(=O)Cn1nnc(-c2cc(OC)c(OC)c(OC)c2)n1 |  | inconclusive: 14.5%
41 | CCOc1cc(C)c(C(C)C)cc1S(=O)(=O)n1ccc(C)n1 | inconclusive: 2.31 µM [activator, partial curve, poor fit] | 
42 | CC(C#N)Sc1ccc(S(=O)(=O)N2CCCCC2)cn1 (configuration not stated) | inconclusive: 29.1 µM [falling, single point] | 
43 | O=C(CSc1ccc2ccccc2c1)NCCc1ccc(O)c(O)c1 |  | inconclusive: -12.4%
44 | O=C(NNC(=O)c1ccccc1F)c1ccco1 |  | inconclusive: 36%
45 | CCN1CCCC1CNC(=O)c1ccc2c(c1)NC(=O)/C(=C\c1ccc(C)cc1)S2 (configuration not stated) |  | inconclusive: -23.8%
46 | Cc1cc(Sc2nc(N(C)C)nc(N(C)C)n2)nc(Cl)n1 |  | inconclusive: 19.2%
47 | COc1ccc(S(=O)(=O)NC(C)C(=O)NCc2ccc3c(c2)OCO3)cc1OC (configuration not stated) | inconclusive: 29.1 µM [activator, single point] | 

Two of the compounds above, comma-delimited.
Row,Structure (SMILES),Potency,"lipid storage change, negative = inhibition"
27,S=C(c1cn(CCOc2cccc3ccccc23)c2ccccc12)N1CCCC1,"inconclusive: 3.26 µM [activator, partial curve]",
28,CN(C)Cc1nc2ccccc2c(=O)n1Cc1nc(C(C)(C)C)cs1,"inconclusive: 0.0731 µM [activator, full curve, poor fit]",
